Out of some 320,000 compounds screened, about 22,000 (6.9%) were called active. This list was built around the results that the source calls inconclusive (neither active nor inactive); the mix of calls is not that of the screen. Calls follow the shape of the dose curve; as a rule, active = well fitted inhibition curve with a large enough effect; inconclusive = small, poorly fitted or top-dose-only effect, or another doubt; inactive = no such curve, though single readings can be large or run the other way. A potency beside an inconclusive call is a rough fit, not a confirmed value.
Assay: Primary qHTS for delayed death inhibitors of the malarial parasite plastid, 96 hour incubation
Conditions: P. falciparum luciferase reporter growth; series mostly up to 28.7 µM; activity change, negative = inhibition: at the top concentration
How it was run: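 Parasite growth measured via integrated firefly luciferase reporter in P. falciparum. Infected erythrocytes at 2% hematocrit, 0.05% parasitemia final were treated 96 hours at 37 C under 5% CO2, and luminescence was read.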
% is scaled to controls: 0 for no effect and ±100 for the full control effect; potency is read from the fitted curve at half-maximal effect.

Structure (SMILES) | activity change, negative = inhibition | Potency
NC(=O)c1ccc(NC(=O)CSc2nnc(-c3cccnc3)n2Cc2ccco2)cc1 | inactive: 17.1% | –
CN(Cc1nc2ccccc2c(=O)[nH]1)C(=O)c1cc(C2CC2)nn1-c1ccccc1 | – | inconclusive: 10.4 µM [inhibitor, single point]
CSc1ncccc1C(=O)N1CCN(C(=O)c2ccccc2)CC1 | – | inconclusive: 1.04 µM [inhibitor, partial curve, poor fit]
COc1cc(/C=C(/C#N)C(=O)NCCCc2ccccc2)ccc1OCC(=O)O | – | inconclusive: 14.7 µM [inhibitor, single point]
O=C(O)c1nc2ccccc2nc1C(=O)O | – | inconclusive: 1.85 µM [inhibitor, full curve]
CCN(Cc1ccccc1)C(c1cccc(C#N)c1)c1nnnn1C(C)(C)C (stereo not drawn) | – | inconclusive: 4.15 µM [inhibitor, full curve, poor fit]
O=C(Nc1cccc(F)c1)c1ccc2c(c1)OCCO2 | inactive: 266% | –
Cc1ccc(C(=O)N2CCC(C(=O)NC3CCCC3)CC2)cc1 | – | inconclusive: 11.7 µM [inhibitor, single point]
O=C(NCCCn1ccnc1)c1nc(Cn2cc(Br)cn2)no1 | – | inconclusive: 18.5 µM [inhibitor, single point]
CCCS(=O)(=O)c1c(S(=O)(=O)CCC)c2c(N)cccn2c1C(=O)c1ccccc1 | – | inconclusive: 13.1 µM [inhibitor, partial curve, poor fit]
CCOc1ccc(NS(=O)(=O)c2ccc3c(c2)CCN3C(C)=O)cc1 | – | inconclusive: 5.22 µM [inhibitor, partial curve, poor fit]
O=C(NCc1ccccc1CN1CCCCC1)c1ccc(Cl)cc1N1CCCC1=O | – | inconclusive: 2.62 µM [inhibitor, single point]
CC[N+]1(C)CC2CCC(C)(C1)C2(C)C (stereo not drawn) | – | inconclusive: 18.5 µM [inhibitor, single point]
CSCC[C@H](NC(=O)N1CCn2c1nc1ccccc12)C(=O)NCc1ccc(F)cc1 | – | active: 11.7 µM
CC(/C=C/c1ccccc1F)=N\NC(=O)c1ccc(Cl)cc1 | – | inconclusive: 0.415 µM [inhibitor, full curve, poor fit]
O=C1CC(N2CCN(c3ccccn3)CC2)C(=O)N1c1ccc(F)cc1 (stereo not drawn) | – | inconclusive: 0.37 µM [inhibitor, partial curve, poor fit]
O=C(c1ccccc1F)c1cn(Cc2ccc(F)cc2)c2ccccc12 | – | active: 7.38 µM
Cc1ccc(S(=O)(=O)Nc2cc3c(cc2C#N)OCO3)cc1C(N)=O | inactive: 0% | –

Reformatted tab-delimited: two of the compounds above
Structure (SMILES)	activity change, negative = inhibition	Potency
O=C(O)c1nc2ccccc2nc1C(=O)O	–	inconclusive: 1.85 µM [inhibitor, full curve]
Cc1ccc(S(=O)(=O)Nc2cc3c(cc2C#N)OCO3)cc1C(N)=O	inactive: 0%	–

— PubChem BioAssay AID504834 (National Center for Advancing Translational Sciences (NCATS), 2011)
